Results published in publication doi:10.1101/2025.02.20.639268.
No constants are given. Whether binding was seen depends on the method and setting. Some binding calls cover weakened binding; strength is not graded here.

The chains behind the UniProt entries cited, without tags or fusion partners. Where a name states a change or a piece, a line headed by the entry shows the natural chain unless it says otherwise. A line that says so, or that is headed by a name, gives the form on record, which may keep a tag or linker. Residues count along the entry.
full-length mouse NOTCH1 Myc, wild type, on HEK293T cells (Q01705, residues 19-2531): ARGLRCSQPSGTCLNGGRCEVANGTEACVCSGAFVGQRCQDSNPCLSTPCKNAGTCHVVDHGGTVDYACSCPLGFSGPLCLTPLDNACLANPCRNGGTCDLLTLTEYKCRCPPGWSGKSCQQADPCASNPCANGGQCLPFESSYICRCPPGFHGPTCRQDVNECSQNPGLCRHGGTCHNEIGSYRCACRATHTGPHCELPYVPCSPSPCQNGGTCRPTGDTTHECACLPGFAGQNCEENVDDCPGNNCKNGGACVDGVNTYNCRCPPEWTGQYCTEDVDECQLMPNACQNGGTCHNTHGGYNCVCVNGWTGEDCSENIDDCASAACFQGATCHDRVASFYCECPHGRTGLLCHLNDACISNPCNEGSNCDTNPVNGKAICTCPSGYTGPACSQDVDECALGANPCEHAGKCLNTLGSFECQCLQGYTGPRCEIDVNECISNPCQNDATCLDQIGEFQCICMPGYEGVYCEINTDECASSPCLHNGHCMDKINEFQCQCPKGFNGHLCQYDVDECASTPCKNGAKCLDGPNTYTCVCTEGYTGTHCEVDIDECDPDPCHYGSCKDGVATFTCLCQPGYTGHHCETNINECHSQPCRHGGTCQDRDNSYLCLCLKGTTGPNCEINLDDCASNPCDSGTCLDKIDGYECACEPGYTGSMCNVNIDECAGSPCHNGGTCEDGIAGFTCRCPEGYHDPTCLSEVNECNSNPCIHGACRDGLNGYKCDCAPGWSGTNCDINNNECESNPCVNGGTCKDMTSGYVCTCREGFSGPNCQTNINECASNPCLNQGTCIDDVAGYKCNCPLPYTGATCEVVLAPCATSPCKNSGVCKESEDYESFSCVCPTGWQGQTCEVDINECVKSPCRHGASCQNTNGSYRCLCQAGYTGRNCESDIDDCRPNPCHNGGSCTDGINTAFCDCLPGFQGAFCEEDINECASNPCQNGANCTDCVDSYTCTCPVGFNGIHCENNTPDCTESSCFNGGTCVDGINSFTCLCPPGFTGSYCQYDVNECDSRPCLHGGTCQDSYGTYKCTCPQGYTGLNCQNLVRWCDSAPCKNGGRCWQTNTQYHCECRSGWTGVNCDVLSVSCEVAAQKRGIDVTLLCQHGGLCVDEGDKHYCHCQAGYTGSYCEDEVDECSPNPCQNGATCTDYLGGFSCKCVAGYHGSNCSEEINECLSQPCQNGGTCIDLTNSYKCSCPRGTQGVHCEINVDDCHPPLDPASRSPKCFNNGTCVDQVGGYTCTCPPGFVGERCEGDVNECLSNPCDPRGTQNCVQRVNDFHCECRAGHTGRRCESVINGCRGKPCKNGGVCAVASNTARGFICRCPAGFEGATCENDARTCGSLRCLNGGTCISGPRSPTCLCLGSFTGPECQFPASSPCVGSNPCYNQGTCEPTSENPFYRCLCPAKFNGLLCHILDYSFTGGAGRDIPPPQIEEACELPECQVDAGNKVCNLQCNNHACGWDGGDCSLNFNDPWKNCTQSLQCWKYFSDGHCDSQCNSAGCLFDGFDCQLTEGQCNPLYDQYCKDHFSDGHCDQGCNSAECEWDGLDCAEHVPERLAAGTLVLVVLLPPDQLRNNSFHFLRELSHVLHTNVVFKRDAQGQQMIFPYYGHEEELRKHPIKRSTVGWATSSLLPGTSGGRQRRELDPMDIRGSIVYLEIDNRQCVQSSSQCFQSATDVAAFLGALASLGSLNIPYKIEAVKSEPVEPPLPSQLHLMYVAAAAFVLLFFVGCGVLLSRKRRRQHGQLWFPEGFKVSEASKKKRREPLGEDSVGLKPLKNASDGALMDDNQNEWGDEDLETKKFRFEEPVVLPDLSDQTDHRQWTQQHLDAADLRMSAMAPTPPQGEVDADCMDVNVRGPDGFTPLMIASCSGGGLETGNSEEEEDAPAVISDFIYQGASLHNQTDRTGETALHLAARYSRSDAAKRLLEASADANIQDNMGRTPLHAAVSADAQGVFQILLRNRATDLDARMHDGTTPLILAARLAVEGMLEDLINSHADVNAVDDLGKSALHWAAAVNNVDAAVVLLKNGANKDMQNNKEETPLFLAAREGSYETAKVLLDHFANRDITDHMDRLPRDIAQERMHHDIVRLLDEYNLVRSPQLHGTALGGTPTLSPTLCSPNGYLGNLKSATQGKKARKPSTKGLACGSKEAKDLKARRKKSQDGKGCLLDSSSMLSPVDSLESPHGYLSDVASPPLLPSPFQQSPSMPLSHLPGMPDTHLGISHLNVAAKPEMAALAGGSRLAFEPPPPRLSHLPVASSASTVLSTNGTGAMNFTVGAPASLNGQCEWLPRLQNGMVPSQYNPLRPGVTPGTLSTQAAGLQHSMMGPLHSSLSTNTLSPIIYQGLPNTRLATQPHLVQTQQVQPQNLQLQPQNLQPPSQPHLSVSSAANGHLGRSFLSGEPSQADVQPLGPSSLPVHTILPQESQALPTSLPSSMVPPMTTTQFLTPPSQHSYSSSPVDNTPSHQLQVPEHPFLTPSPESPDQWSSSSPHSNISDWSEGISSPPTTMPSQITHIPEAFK
full-length mouse NOTCH1 Myc A396Y mutant, on HEK293T cells (Q01705, form named): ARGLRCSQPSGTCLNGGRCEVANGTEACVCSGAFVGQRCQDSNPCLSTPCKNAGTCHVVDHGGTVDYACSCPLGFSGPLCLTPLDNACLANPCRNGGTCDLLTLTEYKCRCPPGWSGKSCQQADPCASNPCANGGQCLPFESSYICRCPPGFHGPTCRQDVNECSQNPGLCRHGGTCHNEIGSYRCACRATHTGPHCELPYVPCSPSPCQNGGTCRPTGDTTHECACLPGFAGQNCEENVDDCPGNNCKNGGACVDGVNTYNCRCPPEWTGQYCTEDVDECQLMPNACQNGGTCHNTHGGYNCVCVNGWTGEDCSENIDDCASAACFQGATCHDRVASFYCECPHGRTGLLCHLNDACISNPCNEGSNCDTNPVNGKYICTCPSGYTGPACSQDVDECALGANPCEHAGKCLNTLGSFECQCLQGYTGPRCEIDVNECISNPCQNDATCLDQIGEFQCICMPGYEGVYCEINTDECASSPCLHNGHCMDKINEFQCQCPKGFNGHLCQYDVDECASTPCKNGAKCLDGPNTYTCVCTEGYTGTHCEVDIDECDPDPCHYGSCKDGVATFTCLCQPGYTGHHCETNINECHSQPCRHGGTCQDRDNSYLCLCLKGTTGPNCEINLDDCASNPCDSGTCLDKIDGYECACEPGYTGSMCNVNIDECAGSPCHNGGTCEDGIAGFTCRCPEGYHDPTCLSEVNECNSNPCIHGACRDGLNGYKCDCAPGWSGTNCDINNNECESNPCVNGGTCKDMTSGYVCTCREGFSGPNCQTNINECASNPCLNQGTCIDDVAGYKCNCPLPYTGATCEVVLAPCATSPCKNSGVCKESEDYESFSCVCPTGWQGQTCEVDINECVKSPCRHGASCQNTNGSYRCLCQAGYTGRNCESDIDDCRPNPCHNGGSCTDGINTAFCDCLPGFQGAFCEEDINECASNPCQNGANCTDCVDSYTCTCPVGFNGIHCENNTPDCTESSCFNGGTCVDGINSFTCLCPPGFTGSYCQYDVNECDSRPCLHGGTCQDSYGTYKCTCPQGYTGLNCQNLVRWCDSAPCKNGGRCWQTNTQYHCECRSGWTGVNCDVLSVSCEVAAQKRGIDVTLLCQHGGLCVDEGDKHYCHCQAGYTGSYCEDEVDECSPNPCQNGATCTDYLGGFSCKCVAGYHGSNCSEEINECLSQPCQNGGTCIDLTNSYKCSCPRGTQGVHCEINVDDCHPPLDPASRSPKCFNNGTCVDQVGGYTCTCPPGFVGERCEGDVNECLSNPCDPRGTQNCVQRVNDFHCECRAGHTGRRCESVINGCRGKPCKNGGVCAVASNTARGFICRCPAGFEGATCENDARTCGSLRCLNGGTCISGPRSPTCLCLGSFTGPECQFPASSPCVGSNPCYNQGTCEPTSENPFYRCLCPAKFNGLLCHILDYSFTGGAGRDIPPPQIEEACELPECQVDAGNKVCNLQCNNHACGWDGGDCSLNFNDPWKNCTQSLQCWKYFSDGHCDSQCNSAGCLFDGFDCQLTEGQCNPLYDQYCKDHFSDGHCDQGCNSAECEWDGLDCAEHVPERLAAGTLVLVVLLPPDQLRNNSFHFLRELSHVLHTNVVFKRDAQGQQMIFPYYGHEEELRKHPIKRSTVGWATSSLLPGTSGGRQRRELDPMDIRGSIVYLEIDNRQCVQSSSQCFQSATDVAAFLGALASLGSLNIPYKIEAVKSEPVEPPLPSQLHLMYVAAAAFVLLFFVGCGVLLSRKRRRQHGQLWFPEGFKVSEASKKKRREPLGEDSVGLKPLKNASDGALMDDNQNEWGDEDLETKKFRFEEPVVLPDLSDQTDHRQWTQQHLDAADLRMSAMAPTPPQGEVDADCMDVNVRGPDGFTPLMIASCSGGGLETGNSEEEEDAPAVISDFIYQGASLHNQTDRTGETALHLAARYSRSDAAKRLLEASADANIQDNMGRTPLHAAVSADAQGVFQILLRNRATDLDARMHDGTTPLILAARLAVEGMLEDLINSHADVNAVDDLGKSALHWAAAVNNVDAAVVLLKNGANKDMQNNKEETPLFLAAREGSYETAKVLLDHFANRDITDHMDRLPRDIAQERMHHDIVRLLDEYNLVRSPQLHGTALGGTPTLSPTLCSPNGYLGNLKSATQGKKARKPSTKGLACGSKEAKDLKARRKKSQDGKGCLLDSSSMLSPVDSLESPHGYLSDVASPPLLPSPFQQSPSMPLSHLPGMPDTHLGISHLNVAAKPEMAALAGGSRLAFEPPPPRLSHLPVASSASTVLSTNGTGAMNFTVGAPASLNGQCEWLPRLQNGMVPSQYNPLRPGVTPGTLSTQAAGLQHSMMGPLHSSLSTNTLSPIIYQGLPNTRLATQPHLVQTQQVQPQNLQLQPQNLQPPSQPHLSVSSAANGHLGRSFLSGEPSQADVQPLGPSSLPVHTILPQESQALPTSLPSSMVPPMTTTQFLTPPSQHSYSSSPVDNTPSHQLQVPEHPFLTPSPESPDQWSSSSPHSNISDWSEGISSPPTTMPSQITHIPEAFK
UniProt P97677, residues 18-537: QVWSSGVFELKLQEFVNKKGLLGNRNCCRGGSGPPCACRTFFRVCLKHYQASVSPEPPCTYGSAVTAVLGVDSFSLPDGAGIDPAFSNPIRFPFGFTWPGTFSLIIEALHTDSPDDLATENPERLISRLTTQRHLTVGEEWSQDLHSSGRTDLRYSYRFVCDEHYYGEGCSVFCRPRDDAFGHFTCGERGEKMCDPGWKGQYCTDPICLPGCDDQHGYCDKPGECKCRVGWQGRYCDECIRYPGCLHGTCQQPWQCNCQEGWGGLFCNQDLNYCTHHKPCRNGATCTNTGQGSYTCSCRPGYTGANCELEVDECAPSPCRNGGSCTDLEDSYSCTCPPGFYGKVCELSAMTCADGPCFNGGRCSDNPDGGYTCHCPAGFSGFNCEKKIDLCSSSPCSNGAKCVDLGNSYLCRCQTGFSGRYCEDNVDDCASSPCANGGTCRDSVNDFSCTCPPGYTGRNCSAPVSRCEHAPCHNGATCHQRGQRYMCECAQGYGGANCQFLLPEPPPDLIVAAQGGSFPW
UniProt Q9NR61, residues 27-529: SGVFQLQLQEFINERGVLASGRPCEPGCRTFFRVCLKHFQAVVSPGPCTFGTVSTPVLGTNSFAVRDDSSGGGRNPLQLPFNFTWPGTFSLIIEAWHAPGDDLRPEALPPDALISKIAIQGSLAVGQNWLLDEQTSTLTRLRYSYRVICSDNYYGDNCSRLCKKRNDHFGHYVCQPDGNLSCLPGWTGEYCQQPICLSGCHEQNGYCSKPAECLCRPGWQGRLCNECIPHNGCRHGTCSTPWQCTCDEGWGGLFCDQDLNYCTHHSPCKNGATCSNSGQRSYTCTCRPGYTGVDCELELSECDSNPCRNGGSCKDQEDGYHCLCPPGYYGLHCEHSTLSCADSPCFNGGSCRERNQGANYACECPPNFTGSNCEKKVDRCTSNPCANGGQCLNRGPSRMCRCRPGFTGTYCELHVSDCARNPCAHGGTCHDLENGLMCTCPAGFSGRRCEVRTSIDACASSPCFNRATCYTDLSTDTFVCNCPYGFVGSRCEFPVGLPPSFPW

Assays:
Assay in all cases: flow cytometry on cells
[1] = target: full-length mouse NOTCH1 Myc A396Y mutant, on HEK293T cells (mouse) (UniProt Q01705)
[2] = target: full-length mouse NOTCH1 Myc, wild type, on HEK293T cells (mouse) (UniProt Q01705)
[3] = target: full-length mouse NOTCH1 Myc A396F mutant, on HEK293T cells (mouse) (UniProt Q01705)

Row | Substance | binding [1] | binding [2] | binding [3]
1 | Rat DLL1-Fc (from UniProt P97677) (Fc fusion) | binds | binds | binds
2 | human DLL4-Fc (from UniProt Q9NR61) (Fc fusion) | binds | binds | binds
3 | human JAG1-Fc (from UniProt P78504) (Fc fusion) | – | binds | –
